Measured values reported in paper PMC5923506.
No constants are given. Whether binding was seen depends on the method and setting. In cells and extracts the contact can be indirect. Tags and fused reporters may be left off the sequences shown.

Protein sequences, listed by entry. Tags and fused reporters are not part of them.
UniProt P04608: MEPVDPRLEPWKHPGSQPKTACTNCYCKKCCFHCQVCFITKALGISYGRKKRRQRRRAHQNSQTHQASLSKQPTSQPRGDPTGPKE
UniProt P04618: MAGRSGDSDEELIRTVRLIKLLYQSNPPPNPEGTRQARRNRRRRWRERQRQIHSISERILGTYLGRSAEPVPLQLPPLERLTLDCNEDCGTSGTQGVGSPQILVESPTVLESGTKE

biological target: T1, HA-tagged full-length human breast carcinoma-associated protein (BCA3) (human) (UniProt Q9NQ31); test: co-IP
T1 sequence: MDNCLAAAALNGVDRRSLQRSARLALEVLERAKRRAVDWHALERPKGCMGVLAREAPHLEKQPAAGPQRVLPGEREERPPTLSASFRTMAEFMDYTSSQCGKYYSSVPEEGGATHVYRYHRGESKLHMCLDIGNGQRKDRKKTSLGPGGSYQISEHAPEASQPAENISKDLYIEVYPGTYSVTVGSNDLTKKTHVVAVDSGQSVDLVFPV

Row | Substance | binding
1 | HIV-1 p6 (from UniProt P04591 449-500) (domain or fragment) | no binding
2 | HIV-1 Tat (from UniProt P04608 1-86) | no binding
3 | HIV-1 Rev (from UniProt P04618 1-116) | no binding
